Reference: PubChem BioAssay AID1224830 (NIAID, 2016)
Screen: 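Host factors that control LPS-induced TNF expression in human macrophages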 (primary screen). System: human THP-1 monocytic leukaemia cells, TNF dual-luciferase reporter clone, PMA-differentiated to macrophage-like cells. Reagents: siRNA pool against human genes, 50 nM. Time to read-out: LPS for 4 h, given about 3 days after siRNA transfection. Conditions: bacterial LPS (TLR4 ligand), 10 ng/ml. Read-out: 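TNF firefly reporter luminescence divided by renilla, normalised to the plate median, then turned into a robust z-score for each replicate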. Direction: TNF reporter robust z-score: higher = stronger TNF reporter response to LPS. Call rule: 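a well is active when its z-score exceeds 2.8 or falls below -1.5; control wells carry no call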.
In all, the deposit lists about 18,000 reagents; below is an unselected part. About 2,900 of them (16%) count as active. 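Calls are made per well; low scores hint the gene aids the LPS response, high scores that it dampens it.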 Entries without a mark were called inactive. Repeated entries: four replicate wells of each siRNA pool. Reagent sequences are not shown.

LSMEM2
- TNF reporter robust z-score: -0.17

LSMEM2
- TNF reporter robust z-score: -0.76

LSMEM2
- TNF reporter robust z-score: -0.05

LSMEM2
- TNF reporter robust z-score: 0.81

STMN4
- TNF reporter robust z-score: 0.48

STMN4
- TNF reporter robust z-score: -0.42

STMN4
- TNF reporter robust z-score: 2.5

STMN4
- TNF reporter robust z-score: 1.5

BAMBI
- TNF reporter robust z-score: -0.87

BAMBI
- TNF reporter robust z-score: -0.69

BAMBI
- TNF reporter robust z-score: -1.31

BAMBI
- TNF reporter robust z-score: -0.4

MEPE
- TNF reporter robust z-score: -0.75

MEPE
- TNF reporter robust z-score: 0.38

MEPE
- TNF reporter robust z-score: -0.84

MEPE
- TNF reporter robust z-score: -0.07

WDR93
- TNF reporter robust z-score: 0.45

WDR93
- TNF reporter robust z-score: -0.47

WDR93
- TNF reporter robust z-score: 0.87

WDR93
- TNF reporter robust z-score: 0.89

KIF15
- TNF reporter robust z-score: 0.44

KIF15
- TNF reporter robust z-score: 1.77

KIF15
- TNF reporter robust z-score: 0.42

KIF15
- TNF reporter robust z-score: 1.14

KCNS2
- TNF reporter robust z-score: -1.07

KCNS2
- TNF reporter robust z-score: -0.8

KCNS2
- TNF reporter robust z-score: -0.13

KCNS2
- TNF reporter robust z-score: 0.65

HS3ST2
- TNF reporter robust z-score: 0.08

HS3ST2
- TNF reporter robust z-score: 1.04

HS3ST2
- TNF reporter robust z-score: 0.53

HS3ST2
- TNF reporter robust z-score: 2.13

CSRNP2
- TNF reporter robust z-score: 1.37

CSRNP2
- TNF reporter robust z-score: 1.52

CSRNP2
- TNF reporter robust z-score: -0.29

CSRNP2
- TNF reporter robust z-score: 1.89

CASP8AP2
- TNF reporter robust z-score: 0.67

CASP8AP2
- TNF reporter robust z-score: 0.6

CASP8AP2
- TNF reporter robust z-score: 0.3

CASP8AP2
- TNF reporter robust z-score: 0.78

CRADD
- TNF reporter robust z-score: 0.26

CRADD
- TNF reporter robust z-score: 0.49

CRADD
- TNF reporter robust z-score: 0.59

CRADD
- TNF reporter robust z-score: -0.85

ZHX2
- TNF reporter robust z-score: 0.94

ZHX2
- TNF reporter robust z-score: 0.98

ZHX2
- TNF reporter robust z-score: 1.07

ZHX2
- TNF reporter robust z-score: 0.83

SERPINF1
- TNF reporter robust z-score: 0.83

SERPINF1
- TNF reporter robust z-score: -0.59

SERPINF1
- TNF reporter robust z-score: 2.32

SERPINF1
- TNF reporter robust z-score: 1.04

OR1L3
- TNF reporter robust z-score: -0.42

OR1L3
- TNF reporter robust z-score: -0.07

OR1L3
- TNF reporter robust z-score: 0.48

OR1L3
- TNF reporter robust z-score: -0.82

CSPG5
- TNF reporter robust z-score: -1.41

CSPG5
- TNF reporter robust z-score: -1.21

CSPG5
- TNF reporter robust z-score: -1.97 (active)

CSPG5
- TNF reporter robust z-score: 0.16

8 consecutive records already listed:
CASP8AP2
- TNF reporter robust z-score: 0.6

CASP8AP2
- TNF reporter robust z-score: 0.3

CASP8AP2
- TNF reporter robust z-score: 0.78

CRADD
- TNF reporter robust z-score: 0.26

CRADD
- TNF reporter robust z-score: 0.49

CRADD
- TNF reporter robust z-score: 0.59

CRADD
- TNF reporter robust z-score: -0.85

ZHX2
- TNF reporter robust z-score: 0.94
